{
  "sequences": {"note": "Sequences of proteins named here, by UniProt entry; tags and fusion partners are left off.", "UniProt G3V7W1": "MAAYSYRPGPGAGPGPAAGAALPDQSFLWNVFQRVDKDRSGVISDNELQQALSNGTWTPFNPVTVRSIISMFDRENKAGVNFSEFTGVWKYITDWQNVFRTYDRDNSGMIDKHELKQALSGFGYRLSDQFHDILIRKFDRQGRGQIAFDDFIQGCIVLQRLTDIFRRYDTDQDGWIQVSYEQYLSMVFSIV"},
  "source": "paper PMC4898701",
  "key": {"[1]": {"biological_target": "T1, FLAG-PRR 800-1113 construct (sec31A proline rich region) (human) (UniProt O94979)", "T1 sequence": "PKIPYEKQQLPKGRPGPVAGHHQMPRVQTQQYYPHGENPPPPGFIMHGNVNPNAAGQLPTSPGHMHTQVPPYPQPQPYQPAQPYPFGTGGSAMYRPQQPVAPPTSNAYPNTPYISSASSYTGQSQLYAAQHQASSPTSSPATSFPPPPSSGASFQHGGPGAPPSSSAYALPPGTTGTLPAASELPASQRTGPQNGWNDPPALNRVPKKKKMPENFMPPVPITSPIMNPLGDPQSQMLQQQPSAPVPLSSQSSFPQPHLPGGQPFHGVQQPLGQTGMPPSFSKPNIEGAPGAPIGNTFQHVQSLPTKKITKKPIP", "assay": "co-IP; whole cell CHAPS extracts of NRK cells transfected with FLAG-PRR and control or peflin siRNA, precipitated with anti-FLAG beads; immunoblot for FLAG and endogenous ALG-2; co-precipitation increased in peflin-depleted cells"}, "[2]": {"biological_target": "T2, sec31A, endogenous in NRK cells (rat (endogenous in NRK)) (UniProt Q9Z2Q1)", "T2 sequence": "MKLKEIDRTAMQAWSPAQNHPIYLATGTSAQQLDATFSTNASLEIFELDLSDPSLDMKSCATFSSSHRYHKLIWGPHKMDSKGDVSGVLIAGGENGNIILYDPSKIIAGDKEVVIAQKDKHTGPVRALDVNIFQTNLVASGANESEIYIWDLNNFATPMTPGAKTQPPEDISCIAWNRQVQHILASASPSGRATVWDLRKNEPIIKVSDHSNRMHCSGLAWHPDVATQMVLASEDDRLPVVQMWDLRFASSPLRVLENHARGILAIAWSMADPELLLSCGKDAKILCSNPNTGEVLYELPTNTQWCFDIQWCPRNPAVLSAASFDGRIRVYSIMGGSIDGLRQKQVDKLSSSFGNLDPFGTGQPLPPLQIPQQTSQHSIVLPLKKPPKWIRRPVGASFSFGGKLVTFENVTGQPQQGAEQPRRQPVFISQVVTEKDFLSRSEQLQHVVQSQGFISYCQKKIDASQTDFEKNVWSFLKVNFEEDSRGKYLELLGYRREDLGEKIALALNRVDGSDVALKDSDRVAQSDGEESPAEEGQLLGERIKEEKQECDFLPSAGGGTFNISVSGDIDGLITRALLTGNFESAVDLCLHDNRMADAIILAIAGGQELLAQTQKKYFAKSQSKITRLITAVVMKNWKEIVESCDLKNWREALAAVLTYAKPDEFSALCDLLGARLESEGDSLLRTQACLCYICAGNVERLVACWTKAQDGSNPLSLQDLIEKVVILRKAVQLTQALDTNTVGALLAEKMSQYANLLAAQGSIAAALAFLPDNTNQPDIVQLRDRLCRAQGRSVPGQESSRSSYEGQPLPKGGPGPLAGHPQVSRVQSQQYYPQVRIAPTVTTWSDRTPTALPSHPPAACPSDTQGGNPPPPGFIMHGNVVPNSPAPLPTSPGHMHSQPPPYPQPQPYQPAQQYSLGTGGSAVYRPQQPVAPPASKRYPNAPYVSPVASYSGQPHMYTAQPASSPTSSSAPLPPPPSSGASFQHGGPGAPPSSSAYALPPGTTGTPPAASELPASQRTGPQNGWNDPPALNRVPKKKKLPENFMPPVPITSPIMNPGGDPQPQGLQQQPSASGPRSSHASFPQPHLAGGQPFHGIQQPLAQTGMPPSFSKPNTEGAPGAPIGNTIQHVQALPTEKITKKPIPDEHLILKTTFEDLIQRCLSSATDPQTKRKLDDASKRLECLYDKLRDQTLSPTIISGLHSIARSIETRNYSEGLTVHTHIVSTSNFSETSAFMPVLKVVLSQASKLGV", "assay": "co-IP; whole cell CHAPS extracts of NRK cells (control or peflin siRNA) precipitated with anti-sec31A antibody conjugated to protein A-Sepharose beads, 2 h at 4°C, 20 mM Tris-HCl pH 7.4, 150 mM KCl, 10 mM CHAPS; immunoblot for sec31A and ALG-2; about 3-fold more ALG-2 co-precipitated in peflin-depleted cells"}},
  "note": "Results are given in words; binding and its absence hold for the method and conditions named. Binding seen in cells or lysates may run through a third protein. Some binding calls cover weakened binding; strength is not graded here. For some assays here: Tags and fused reporters may be left off the sequences shown.",
  "data": [
    {"substance": "apoptosis-linked gene 2 (ALG-2), endogenous in NRK cells (from UniProt G3V7W1 1-191)", "values": [
      {"measurement": "binding", "setting": "[1]", "value": "binds"},
      {"measurement": "binding", "setting": "[2]", "value": "binds weakly"}
    ]}
  ]
}
